In one test the target is FLAG-TonEBP (human) (UniProt O94916). Description: co-IP; HEK293 cells transfected with plasmids for tagged proteins (FLAG, Myc, HA); lysates immunoprecipitated with the anti-tag antibody, blots; in some EtBr (0.1 mg/mL) during the IP or benzonase, TonEBP depletion before the analysis, or 0.01% MMS for 1 h and 1-4 h in fresh medium.
The target in test [1] is hemagglutinin (HA)-TonEBP (human) (UniProt O94916). The test is described as above.
Test [2] deals with tonicity-responsive enhancer-binding protein (TonEBP), endogenous (human (endogenous in HEK293)) (UniProt O94916). Description: co-IP; endogenous proteins; HEK293 cell lysates immunoprecipitated with anti-TonEBP, anti-SHPRH or anti-USP1 antibody, normal serum as negative control; blots.
Test [3] has as its target TonEBP (construct of the co-IPs of Figures S1C, S1E, S6B and S6C not shown) (UniProt O94916). Nature of the test: co-IP; Figures S1C, S1E, S6B, S6C; cells, constructs and antibodies not shown; SHPRH knockdown in Figure S6C.
The target of test [4] is SHPRH, endogenous (human (endogenous in HEK293)) (UniProt Q149N8). Description: co-IP; endogenous proteins; HEK293 cell lysates immunoprecipitated with anti-TonEBP, anti-SHPRH or anti-USP1 antibody, normal serum as negative control; blots.

The chains behind the UniProt entries cited, without tags or fusion partners. Where a name states a change or a piece, a line headed by the entry shows the natural chain unless it says otherwise.
UniProt O94916: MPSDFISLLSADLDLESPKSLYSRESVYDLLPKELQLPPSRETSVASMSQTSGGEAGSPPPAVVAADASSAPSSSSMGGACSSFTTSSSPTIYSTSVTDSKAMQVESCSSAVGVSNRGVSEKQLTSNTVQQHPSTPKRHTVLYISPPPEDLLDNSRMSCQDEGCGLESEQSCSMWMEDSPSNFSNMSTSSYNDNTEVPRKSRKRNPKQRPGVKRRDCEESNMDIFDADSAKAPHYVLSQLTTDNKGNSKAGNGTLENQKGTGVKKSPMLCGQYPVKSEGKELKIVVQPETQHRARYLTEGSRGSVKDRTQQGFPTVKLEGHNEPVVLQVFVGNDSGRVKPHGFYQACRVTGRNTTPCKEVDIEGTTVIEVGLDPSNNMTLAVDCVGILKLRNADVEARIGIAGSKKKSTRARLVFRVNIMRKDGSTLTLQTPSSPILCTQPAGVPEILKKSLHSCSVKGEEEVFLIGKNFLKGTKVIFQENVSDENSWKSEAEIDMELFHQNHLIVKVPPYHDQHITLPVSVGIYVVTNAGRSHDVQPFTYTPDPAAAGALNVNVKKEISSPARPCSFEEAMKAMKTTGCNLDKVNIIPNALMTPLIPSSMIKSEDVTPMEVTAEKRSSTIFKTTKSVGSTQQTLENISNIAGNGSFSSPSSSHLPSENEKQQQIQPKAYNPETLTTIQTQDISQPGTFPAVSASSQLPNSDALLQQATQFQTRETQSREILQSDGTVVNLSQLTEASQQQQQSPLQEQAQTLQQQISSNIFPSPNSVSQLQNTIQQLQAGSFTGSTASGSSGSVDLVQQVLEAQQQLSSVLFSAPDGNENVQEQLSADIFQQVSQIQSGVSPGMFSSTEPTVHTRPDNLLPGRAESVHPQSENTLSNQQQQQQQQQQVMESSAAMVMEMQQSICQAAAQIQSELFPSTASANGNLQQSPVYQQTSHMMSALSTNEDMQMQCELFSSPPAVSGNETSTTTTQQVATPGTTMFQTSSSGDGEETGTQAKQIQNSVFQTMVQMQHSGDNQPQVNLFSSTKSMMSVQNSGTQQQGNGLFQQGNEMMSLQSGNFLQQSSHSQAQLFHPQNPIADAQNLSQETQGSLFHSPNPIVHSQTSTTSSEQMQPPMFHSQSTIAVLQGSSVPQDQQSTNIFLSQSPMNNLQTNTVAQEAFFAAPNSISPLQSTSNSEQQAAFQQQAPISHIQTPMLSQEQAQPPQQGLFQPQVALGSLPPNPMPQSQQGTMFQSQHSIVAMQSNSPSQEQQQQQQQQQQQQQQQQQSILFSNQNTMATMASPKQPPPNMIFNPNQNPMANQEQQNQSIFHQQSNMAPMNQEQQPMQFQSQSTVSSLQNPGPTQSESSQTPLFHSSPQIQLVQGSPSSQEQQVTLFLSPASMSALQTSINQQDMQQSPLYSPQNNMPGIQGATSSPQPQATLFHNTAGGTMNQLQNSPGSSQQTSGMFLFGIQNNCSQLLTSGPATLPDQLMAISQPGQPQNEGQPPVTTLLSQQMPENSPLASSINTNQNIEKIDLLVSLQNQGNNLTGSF
UniProt Q149N8: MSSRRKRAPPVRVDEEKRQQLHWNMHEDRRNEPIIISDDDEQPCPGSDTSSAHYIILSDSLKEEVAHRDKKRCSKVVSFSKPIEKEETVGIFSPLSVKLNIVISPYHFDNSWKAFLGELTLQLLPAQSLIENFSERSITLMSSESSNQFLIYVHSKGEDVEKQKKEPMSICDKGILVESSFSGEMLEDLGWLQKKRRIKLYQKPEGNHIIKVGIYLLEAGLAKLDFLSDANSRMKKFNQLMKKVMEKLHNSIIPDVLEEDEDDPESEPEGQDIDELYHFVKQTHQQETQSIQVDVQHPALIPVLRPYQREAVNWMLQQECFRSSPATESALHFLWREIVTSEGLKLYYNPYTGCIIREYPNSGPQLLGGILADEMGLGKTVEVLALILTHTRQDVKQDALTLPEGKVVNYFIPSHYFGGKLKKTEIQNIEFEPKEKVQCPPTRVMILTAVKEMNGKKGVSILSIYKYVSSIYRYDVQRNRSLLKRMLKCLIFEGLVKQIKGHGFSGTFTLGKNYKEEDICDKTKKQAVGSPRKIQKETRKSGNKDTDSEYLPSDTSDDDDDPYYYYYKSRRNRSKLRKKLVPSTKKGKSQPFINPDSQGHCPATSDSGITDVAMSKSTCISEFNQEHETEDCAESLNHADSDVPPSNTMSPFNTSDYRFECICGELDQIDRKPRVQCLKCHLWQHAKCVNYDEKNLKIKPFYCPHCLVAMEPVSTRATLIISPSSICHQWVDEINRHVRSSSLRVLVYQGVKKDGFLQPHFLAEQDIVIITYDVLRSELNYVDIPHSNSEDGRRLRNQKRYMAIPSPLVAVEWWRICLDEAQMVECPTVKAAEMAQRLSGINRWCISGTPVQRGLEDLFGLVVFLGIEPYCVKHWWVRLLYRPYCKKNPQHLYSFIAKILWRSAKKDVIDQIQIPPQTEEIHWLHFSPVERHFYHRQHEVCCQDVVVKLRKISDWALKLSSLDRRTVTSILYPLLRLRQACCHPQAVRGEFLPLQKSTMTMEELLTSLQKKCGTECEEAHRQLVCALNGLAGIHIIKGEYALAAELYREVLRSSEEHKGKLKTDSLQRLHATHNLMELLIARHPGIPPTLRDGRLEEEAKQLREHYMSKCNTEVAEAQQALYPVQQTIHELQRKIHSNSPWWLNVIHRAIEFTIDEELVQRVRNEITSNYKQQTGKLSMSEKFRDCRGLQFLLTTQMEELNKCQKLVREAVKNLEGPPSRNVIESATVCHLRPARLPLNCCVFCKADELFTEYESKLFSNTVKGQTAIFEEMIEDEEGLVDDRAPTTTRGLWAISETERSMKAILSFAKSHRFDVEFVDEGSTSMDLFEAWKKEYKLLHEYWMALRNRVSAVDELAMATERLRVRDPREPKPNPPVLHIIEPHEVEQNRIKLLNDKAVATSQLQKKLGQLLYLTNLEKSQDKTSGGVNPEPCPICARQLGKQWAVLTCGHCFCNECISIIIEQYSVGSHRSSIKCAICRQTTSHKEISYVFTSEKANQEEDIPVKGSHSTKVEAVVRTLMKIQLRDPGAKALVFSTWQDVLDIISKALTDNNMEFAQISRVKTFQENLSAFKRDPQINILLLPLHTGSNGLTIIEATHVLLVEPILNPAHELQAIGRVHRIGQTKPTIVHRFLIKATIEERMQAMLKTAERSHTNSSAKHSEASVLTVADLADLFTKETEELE
UniProt Q8TAF3: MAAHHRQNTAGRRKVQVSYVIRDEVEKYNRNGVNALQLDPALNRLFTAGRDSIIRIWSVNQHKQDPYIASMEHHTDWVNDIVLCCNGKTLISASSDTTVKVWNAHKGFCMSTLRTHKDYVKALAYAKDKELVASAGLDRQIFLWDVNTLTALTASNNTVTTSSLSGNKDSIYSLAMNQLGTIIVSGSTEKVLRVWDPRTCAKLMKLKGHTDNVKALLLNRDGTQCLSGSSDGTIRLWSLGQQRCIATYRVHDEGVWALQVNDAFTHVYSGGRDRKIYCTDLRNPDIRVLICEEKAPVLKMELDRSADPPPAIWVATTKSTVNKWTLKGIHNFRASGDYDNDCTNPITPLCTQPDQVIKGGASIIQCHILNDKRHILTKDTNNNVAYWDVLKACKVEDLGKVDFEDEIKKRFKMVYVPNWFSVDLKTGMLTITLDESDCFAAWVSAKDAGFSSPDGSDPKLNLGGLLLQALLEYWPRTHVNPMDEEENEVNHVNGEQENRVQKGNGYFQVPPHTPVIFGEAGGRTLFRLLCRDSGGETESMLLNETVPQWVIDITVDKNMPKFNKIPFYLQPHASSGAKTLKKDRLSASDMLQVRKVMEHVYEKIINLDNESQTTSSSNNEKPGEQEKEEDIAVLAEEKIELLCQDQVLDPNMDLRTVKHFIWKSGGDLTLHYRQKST

No constants are given. Whether binding was seen depends on the method and setting. Binding seen in cells or lysates may run through a third protein. Some entries that bind do so weakly or less than the wild type.

In the case of Myc-SHPRH (from UniProt Q149N8 1-1683), the binding result (with FLAG-TonEBP (human); in test [1]) was “binds” each time. “SHPRH, endogenous (from UniProt Q149N8 1-1683)”: in test [2], the binding entry is “binds”. With “USP1-associated factor 1 (UAF1) (from UniProt Q8TAF3 1-677)”, the binding entry in test [3] is “binds”. On to “tonicity-responsive enhancer-binding protein (TonEBP), endogenous (from UniProt O94916 1-1531)”, for which, in test [4], the binding entry is reported as “binds”.

The values above are taken from article PMC6677787.
